Measurements as given in PMC10130008.
No constants are given. Whether binding was seen depends on the method and setting. Binding seen in cells or lysates may run through a third protein. Some entries that bind do so weakly or less than the wild type. For some assays here: Tags and fused reporters may be left off the sequences shown.

Experiments:
V5-tagged Integrin α8 = target: T1, V5-tagged Integrin α8 (UniProt A2ARA8); assay: co-IP; HEK293T cells transiently transfected with V5-tagged Integrin α8 or Integrin β1 and Flag-tagged Ism1 or Ism1 truncations; lysate with sonication, antibody 4-6 h at 4 °C, Protein A- or G-agarose overnight; Western blotting
T1 sequence: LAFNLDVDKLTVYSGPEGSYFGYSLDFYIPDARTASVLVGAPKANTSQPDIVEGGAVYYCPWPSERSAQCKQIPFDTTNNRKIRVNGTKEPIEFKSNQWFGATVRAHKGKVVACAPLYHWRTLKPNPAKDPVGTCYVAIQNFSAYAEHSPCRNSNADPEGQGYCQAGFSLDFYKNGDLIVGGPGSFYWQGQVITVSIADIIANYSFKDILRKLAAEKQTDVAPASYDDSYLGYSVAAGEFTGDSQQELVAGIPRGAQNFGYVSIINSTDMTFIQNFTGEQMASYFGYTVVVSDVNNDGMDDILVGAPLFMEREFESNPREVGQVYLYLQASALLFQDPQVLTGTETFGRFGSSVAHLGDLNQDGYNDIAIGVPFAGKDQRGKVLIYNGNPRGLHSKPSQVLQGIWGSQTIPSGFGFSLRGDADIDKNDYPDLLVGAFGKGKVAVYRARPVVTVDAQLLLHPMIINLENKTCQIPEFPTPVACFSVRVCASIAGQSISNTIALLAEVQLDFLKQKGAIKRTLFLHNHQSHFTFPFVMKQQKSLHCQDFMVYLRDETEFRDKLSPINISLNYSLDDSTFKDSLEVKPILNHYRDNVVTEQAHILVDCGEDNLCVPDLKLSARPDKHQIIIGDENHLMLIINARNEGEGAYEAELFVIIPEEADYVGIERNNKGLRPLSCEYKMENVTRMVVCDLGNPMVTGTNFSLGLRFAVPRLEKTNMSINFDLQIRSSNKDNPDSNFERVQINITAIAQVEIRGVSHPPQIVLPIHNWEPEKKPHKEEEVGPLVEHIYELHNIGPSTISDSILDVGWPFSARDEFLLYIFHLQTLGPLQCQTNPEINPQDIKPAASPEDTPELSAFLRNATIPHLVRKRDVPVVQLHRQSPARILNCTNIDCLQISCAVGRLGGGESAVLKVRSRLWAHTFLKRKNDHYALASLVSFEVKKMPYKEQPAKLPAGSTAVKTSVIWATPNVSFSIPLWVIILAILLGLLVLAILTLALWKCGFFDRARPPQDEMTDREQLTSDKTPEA

[1] = target: T2, Integrin α8, endogenous in E11.5 wild-type mouse kidney (mouse (endogenous in E11.5 kidney)) (UniProt A2ARA8); assay: proximity ligation; in situ PLA (Duolink) on cryosections of E11.5 wild-type mouse kidney rudiments; rabbit anti-Ism1 and goat anti-Integrin α8; negative control anti-Integrin α8 and rabbit IgG
T2 sequence: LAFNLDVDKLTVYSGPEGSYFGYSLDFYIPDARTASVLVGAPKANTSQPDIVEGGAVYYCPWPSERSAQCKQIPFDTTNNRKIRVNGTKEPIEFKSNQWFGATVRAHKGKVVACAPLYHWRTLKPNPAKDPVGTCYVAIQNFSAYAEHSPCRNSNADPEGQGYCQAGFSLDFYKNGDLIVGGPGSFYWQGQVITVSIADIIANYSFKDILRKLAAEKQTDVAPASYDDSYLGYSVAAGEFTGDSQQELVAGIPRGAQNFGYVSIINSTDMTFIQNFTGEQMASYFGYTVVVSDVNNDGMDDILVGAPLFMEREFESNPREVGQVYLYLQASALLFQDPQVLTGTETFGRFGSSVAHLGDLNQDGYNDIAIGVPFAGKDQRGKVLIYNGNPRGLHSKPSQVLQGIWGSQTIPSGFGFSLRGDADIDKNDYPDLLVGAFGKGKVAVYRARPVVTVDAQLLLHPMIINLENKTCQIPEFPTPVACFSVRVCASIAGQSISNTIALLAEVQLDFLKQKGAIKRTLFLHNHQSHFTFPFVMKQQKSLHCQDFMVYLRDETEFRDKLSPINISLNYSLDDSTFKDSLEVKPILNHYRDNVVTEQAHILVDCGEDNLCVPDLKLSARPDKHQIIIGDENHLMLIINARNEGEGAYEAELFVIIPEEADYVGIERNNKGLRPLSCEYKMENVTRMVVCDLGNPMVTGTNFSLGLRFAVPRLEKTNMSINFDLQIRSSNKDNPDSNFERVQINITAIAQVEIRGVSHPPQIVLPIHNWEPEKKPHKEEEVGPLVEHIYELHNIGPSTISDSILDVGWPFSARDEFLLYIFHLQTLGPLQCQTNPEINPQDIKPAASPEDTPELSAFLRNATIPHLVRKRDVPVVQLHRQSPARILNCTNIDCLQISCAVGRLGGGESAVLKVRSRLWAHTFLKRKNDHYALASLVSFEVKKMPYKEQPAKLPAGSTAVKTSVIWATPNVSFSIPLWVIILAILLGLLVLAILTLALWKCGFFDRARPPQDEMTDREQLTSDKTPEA

B1: Flag-tagged recombinant Ism1 (Isthmin-1), full-length (protein, UniProt A2ATD1 30-454)
chain: SDRQDAAAGNNNLNLESDSTSETSFPLSKEAPEEHQVVHQPFPRQRFPPETGHPSLQRDGPRSFLLDLPNFPDLSKADINGQNPNIQVTIEVVDGPDSEAEKDQHPENKPSWSLPAPDWRAWWQRSLSLARTNSGDQDDKYDSTSDDSNFLSVPRGWDRPAPGHRTFETKEQPEYDSTDGEGDWSLWSVCSVTCGNGNQKRTRSCGYACIATESRTCDRPNCPGIEDTFRTAATEVSLLAGSEEFNATKLFEVDMDSCERWMSCKSEFLKKYMHKVINDLPSCPCSYPTEVAYSTADIFDRIKRKDFRWKDASGPKEKLEIYKPTARYCIRSMLSLESTTLAAQHCCYGDNMQLITRGKGAGTPNLISTEFSAELHYKVDVLPWIICKGDWSRYNEARPPNNGQKCTESPSDEDYIKQFQEAREY
In the case of B1, the binding (V5-tagged Integrin α8) is reported as “binds”.

B2: Ism1 (Isthmin-1), endogenous in E11.5 wild-type mouse kidney (protein, UniProt A2ATD1 30-454)
chain: SDRQDAAAGNNNLNLESDSTSETSFPLSKEAPEEHQVVHQPFPRQRFPPETGHPSLQRDGPRSFLLDLPNFPDLSKADINGQNPNIQVTIEVVDGPDSEAEKDQHPENKPSWSLPAPDWRAWWQRSLSLARTNSGDQDDKYDSTSDDSNFLSVPRGWDRPAPGHRTFETKEQPEYDSTDGEGDWSLWSVCSVTCGNGNQKRTRSCGYACIATESRTCDRPNCPGIEDTFRTAATEVSLLAGSEEFNATKLFEVDMDSCERWMSCKSEFLKKYMHKVINDLPSCPCSYPTEVAYSTADIFDRIKRKDFRWKDASGPKEKLEIYKPTARYCIRSMLSLESTTLAAQHCCYGDNMQLITRGKGAGTPNLISTEFSAELHYKVDVLPWIICKGDWSRYNEARPPNNGQKCTESPSDEDYIKQFQEAREY
B2 was tested, and the binding [1] was “binds”.
